Data taken from patent US20170283497A1 (CELLECTIS, published 2017).
These are yes or no findings as the source states them, for the method shown. Some binding calls cover weakened binding; strength is not graded here.

The chains behind the UniProt entries cited, without tags or fusion partners. Residues count along the entry.
UniProt Q01973, residues 30-937: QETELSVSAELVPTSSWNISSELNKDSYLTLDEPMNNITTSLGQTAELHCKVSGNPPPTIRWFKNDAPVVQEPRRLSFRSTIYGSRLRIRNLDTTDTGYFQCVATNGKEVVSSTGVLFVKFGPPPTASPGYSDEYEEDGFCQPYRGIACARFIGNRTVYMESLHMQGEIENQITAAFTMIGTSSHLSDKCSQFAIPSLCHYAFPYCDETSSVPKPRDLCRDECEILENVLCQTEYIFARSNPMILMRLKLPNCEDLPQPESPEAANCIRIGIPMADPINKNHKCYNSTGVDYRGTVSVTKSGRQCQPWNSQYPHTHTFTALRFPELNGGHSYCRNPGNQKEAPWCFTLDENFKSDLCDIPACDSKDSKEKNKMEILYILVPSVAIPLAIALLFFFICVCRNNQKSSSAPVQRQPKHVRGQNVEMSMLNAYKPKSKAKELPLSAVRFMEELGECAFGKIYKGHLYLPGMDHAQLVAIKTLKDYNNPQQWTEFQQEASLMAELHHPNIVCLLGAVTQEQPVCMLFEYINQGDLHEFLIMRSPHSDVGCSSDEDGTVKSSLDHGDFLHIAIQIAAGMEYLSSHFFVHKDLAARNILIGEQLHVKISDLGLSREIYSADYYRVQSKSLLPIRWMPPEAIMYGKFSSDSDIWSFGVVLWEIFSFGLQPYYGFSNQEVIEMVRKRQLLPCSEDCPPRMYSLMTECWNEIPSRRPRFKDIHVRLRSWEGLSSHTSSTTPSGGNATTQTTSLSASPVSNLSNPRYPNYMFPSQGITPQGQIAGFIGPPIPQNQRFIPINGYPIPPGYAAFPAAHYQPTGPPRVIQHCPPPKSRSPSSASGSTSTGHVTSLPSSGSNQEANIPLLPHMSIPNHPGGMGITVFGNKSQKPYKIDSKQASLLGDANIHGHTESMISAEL

Target: Tyrosine-protein kinase transmembrane receptor ROR1 (human) (UniProt Q01973)
Test: flow cytometry, saturation binding of the mAb with Qifikit on human cell lines

- binding: binds
B1: anti-human ROR1 mAb clone 2A2 (antibody, V domains shown)
VH: QVQLQQSGAELVRPGASVTLSCKASGYTFSDYEMHWVIQTPVHGLEWIGAIDPETGGTAYNQKFKGKAILTADKSSSTAYMELRSLTSEDSAVYYCTGYYDYDSFTYWGQGTLVTVSA
VL: DIVMTQSQKIMSTTVGDRVSITCKASQNVDAAVAWYQQKPGQSPKLLIYSASNRYTGVPDRFTGSGSGTDFTLTISNMQSEDLADYFCQQYDIYPYTFGGGTKLEIK
